The record followed here is paper doi:10.1101/2025.05.05.652186.

Amino acid sequences for entries named in this document (tags omitted). A change or cut given only in a name is not applied to a line headed by its entry. Residues count along the entry.
UniProt Q9UM47, residues 40-2321: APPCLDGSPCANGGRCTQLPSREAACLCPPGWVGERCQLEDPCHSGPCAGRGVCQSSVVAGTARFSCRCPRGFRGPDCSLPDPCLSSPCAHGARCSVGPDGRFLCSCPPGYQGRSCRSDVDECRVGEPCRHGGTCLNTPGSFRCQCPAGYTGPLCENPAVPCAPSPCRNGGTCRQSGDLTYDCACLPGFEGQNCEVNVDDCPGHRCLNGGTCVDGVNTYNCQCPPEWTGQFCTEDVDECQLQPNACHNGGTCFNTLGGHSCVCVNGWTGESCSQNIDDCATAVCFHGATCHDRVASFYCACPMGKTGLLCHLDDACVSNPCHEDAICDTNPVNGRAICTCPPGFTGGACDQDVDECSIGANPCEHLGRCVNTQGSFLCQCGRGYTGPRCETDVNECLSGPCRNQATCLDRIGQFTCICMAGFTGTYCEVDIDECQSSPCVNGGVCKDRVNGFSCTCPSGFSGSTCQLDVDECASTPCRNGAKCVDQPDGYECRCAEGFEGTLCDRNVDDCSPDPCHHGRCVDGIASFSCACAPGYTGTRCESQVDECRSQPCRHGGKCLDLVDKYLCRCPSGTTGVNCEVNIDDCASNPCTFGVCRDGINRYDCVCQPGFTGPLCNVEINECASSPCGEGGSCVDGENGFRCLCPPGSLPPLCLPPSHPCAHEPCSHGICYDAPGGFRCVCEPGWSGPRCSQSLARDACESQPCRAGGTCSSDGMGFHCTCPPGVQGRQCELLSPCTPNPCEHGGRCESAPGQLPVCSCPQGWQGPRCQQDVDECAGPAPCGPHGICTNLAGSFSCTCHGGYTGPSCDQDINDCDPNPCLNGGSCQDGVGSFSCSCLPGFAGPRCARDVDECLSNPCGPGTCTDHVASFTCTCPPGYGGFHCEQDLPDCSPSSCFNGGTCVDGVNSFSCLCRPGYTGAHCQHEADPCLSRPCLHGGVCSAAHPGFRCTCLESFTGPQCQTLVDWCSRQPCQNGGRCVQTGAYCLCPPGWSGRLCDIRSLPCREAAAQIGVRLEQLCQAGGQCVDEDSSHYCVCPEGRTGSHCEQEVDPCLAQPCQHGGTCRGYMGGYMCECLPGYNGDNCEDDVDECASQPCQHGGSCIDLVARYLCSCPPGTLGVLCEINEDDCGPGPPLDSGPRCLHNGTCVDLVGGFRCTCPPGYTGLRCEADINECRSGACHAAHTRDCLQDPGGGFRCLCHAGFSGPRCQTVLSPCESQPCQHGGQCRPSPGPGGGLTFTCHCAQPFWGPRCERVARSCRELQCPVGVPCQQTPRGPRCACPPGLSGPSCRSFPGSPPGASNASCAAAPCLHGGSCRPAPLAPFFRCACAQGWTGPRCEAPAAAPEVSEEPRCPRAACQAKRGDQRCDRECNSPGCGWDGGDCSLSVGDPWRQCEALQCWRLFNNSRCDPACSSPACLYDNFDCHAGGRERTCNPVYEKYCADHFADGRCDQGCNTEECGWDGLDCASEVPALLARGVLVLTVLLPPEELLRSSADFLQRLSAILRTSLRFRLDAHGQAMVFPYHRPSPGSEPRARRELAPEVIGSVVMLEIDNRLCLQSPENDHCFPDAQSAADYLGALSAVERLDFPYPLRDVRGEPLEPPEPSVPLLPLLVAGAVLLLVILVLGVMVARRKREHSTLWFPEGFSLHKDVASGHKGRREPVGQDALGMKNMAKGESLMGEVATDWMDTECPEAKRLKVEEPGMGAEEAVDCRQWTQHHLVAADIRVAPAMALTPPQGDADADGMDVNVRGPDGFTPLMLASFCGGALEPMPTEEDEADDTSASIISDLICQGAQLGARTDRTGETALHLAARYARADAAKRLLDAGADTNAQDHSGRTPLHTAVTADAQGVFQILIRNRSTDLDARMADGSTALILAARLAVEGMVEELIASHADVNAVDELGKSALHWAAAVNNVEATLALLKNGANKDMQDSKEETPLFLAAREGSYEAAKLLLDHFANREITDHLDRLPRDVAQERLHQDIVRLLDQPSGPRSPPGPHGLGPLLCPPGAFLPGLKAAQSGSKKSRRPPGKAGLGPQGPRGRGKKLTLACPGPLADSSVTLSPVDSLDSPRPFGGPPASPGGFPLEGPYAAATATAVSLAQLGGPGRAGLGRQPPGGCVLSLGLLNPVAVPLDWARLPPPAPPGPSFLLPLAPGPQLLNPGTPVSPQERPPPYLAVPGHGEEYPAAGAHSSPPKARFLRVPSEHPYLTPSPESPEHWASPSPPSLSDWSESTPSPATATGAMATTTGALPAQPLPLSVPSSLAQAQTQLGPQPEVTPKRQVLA
UniProt Q04721, residues 26-2471: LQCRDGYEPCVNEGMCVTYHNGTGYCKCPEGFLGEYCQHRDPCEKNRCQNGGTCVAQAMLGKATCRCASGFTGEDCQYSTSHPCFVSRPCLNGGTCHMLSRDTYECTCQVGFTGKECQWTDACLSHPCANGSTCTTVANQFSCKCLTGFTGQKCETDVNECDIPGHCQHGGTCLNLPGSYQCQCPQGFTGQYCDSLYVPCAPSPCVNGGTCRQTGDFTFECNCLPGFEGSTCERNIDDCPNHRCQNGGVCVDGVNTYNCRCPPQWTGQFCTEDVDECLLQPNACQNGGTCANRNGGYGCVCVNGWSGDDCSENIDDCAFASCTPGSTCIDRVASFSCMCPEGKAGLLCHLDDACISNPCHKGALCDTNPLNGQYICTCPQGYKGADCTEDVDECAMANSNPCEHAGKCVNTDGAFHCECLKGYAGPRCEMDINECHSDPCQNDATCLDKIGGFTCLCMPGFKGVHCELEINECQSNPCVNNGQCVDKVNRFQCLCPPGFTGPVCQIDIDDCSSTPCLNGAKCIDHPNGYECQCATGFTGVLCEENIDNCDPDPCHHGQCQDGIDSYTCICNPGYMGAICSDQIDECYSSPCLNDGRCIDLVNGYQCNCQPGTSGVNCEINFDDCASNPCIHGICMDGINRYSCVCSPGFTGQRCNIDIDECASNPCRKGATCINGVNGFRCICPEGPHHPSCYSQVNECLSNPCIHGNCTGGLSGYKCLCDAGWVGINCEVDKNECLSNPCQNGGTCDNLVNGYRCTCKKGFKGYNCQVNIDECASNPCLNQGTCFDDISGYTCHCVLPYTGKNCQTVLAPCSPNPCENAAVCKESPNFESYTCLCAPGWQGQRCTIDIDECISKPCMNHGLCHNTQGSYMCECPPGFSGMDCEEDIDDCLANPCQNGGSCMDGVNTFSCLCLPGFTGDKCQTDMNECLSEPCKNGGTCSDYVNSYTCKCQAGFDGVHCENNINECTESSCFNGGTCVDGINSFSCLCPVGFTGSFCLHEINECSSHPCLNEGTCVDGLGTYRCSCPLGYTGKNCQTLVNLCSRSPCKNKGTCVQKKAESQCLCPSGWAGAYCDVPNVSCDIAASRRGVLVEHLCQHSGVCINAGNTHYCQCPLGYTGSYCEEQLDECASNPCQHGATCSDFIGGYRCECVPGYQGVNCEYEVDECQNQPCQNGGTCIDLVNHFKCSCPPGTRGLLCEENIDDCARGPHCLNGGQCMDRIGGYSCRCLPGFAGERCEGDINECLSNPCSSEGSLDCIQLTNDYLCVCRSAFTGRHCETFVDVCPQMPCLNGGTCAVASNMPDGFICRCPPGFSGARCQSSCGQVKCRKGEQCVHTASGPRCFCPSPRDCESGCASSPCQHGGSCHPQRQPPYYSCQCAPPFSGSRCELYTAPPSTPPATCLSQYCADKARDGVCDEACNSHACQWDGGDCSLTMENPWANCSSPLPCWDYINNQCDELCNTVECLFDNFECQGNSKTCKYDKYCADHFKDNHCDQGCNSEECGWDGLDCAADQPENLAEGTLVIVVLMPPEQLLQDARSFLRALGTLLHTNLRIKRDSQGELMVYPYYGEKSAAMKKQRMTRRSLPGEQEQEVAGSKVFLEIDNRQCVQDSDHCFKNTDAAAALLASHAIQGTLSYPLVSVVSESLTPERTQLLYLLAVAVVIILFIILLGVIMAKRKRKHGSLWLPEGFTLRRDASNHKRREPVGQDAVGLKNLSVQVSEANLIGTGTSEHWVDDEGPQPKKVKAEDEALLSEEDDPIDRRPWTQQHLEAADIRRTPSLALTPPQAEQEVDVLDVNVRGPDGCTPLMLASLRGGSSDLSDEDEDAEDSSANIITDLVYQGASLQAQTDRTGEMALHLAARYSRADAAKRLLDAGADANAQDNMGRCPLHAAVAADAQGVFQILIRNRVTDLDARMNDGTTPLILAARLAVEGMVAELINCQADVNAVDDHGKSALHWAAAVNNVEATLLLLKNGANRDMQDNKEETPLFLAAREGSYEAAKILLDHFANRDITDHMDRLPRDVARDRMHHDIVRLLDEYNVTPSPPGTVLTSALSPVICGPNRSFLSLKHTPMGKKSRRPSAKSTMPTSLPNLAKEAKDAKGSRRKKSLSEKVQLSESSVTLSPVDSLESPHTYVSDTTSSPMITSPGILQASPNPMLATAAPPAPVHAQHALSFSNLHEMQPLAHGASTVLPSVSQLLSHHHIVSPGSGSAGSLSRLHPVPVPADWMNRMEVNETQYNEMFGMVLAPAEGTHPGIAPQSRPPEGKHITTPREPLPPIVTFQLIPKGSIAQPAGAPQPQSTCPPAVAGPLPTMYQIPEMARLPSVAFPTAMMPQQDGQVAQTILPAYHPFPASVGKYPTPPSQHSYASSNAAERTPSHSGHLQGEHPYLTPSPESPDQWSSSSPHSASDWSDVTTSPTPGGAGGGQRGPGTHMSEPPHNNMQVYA
UniProt P78504, residues 34-1067: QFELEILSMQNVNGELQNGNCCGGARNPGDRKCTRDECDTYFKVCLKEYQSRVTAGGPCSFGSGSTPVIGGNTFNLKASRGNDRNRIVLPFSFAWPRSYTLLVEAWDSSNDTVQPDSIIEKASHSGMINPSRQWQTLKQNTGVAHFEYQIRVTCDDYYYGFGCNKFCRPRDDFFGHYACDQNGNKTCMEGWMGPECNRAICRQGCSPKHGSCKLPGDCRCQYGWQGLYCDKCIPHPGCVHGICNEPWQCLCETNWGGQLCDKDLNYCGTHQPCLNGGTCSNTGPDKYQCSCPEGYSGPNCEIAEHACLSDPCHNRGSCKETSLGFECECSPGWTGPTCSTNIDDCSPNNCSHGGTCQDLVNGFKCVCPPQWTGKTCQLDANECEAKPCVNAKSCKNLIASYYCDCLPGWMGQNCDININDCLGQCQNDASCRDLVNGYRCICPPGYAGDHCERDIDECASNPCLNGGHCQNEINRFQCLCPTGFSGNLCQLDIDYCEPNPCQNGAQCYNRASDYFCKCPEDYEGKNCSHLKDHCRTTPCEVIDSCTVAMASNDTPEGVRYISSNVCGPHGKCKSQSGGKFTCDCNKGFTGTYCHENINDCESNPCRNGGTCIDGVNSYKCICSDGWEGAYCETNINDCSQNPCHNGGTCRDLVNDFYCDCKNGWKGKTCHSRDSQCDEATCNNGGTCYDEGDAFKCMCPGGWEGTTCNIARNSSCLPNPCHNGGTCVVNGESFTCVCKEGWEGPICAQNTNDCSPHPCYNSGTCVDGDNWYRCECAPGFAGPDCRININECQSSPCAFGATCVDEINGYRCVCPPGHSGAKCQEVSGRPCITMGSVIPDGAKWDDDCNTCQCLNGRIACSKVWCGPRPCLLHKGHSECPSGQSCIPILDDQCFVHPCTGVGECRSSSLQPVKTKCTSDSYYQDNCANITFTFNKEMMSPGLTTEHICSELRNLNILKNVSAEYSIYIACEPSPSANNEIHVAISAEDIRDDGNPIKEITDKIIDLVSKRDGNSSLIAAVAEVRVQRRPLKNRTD

For assay [1], the target named is Notch3 (human (endogenous in human aortic SMCs)) (UniProt Q9UM47). Kind of assay: flow cytometry on cells.
Assay [2] has as its target Notch2 (human (endogenous in human aortic SMCs)) (UniProt Q04721). Kind of assay: flow cytometry on cells. (In flow cytometry, cells or beads pass a laser one at a time.)

Results are given in words; binding and its absence hold for the method and conditions named. Some entries that bind do so weakly or less than the wild type.

With “recombinant human Jagged1-Fc chimeric ligand (from UniProt P78504 34-1067) (Fc fusion)”, the binding entry in assay [1] and in assay [2] was “binds” each time.
